Consider one compound from patent US7045532B2 (Millennium Pharmaceuticals, Inc., priority 1999, dated 2006).

The chains behind the UniProt entries cited, without tags or fusion partners. Residues count along the entry.
UniProt F1RRW5, 34-1309 limits assumed: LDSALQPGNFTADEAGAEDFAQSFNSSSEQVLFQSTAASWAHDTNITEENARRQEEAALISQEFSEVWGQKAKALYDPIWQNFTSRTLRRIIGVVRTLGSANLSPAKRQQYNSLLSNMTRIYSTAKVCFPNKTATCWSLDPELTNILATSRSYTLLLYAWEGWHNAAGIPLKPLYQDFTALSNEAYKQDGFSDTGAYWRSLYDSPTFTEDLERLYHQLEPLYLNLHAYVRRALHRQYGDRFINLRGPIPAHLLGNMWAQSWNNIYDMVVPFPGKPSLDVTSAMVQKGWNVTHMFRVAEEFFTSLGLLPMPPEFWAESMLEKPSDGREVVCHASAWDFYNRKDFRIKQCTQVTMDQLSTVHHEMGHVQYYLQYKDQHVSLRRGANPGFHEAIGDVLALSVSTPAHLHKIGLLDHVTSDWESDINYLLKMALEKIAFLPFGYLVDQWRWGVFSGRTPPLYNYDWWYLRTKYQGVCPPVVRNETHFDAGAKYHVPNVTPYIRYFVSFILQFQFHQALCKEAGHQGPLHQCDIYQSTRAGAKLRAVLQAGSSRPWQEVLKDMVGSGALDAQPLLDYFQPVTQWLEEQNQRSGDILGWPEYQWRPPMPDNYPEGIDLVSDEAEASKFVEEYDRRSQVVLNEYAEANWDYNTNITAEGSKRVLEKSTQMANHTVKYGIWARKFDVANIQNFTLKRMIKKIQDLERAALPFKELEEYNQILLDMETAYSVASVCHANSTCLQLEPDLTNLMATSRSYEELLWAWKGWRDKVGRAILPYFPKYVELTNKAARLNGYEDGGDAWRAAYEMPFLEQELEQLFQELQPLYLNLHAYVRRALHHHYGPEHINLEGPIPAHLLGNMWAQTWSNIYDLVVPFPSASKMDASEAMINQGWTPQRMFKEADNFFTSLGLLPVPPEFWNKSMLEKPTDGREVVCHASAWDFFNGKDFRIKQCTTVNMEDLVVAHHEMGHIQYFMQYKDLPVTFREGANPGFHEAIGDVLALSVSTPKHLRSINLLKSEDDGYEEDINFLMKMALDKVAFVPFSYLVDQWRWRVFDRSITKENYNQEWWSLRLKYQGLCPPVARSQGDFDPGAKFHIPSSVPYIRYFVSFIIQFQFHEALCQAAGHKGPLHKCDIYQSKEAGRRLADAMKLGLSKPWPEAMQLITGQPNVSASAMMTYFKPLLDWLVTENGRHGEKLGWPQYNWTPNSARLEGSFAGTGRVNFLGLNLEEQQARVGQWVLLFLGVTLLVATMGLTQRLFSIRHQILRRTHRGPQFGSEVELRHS
UniProt P00730, 111-419 limits assumed: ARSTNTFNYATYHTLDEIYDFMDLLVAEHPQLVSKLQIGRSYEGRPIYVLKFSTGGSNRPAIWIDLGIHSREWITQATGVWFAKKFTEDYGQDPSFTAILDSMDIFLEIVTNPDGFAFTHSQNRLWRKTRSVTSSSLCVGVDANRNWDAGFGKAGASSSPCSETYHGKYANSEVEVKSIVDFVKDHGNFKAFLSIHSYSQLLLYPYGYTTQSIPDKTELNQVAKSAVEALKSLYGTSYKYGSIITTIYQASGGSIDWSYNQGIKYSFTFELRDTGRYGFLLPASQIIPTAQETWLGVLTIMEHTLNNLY

For assay [1], the target named is ACE (Sigma, A2580) (Sus scrofa, UniProt F1RRW5). Put plainly: ACE enzymatic activity assay. The settings on record: read-out: ACE Activity; Ki class; compounds tested in 5% DMSO, 12 concentrations; tested form: 0.2 HCl.
Assay [2] addresses Carboxypeptidase A (Bos taurus, UniProt P00730). In words: Carboxypeptidase A activity assay. The settings on record: read-out: Carboxypeptidase A Activity; Ki class; compounds tested in 5% DMSO, 12 concentrations; tested form: 0.2 HCl.

The match of structure and compound is tentative.

Consider `CCC(C)C(N[C@H](CCc1ccccc1)C(=O)O)C(=O)O` (some centres unmarked), for which the Ki in assay [1] and in assay [2] was above 50 µM in each case.
